The record followed here is patent US20120301951A1, “PREVENTION OF CONTAMINATION OF NUTRIENT FEED RESERVOIRS & FEED LINES IN BIOREACTOR SYSTEMS” (E. I. DU PONT DE NEMOURS AND COMPANY, priority 2010, published 2012).

In this series the test system is Arcobacter sp. strain 97AE3-12. Description: Contamination prevention of the nutrient feed reservoir during continuous growth in a bioreactor (Example 2); ion chromatography of feed reservoir and effluent. The format is cell-based.

For `O=NO` [Nitrite, nitrite], where the note is “20 days”, the “Concentration in bioreactor effluent (7) after 20 days of feeding” value turned out to be 0 ppm. In addition, the “Concentration in bioreactor effluent (7) after 26 days of feeding” value (26 days) is recorded as 3 ppm.
